Data from the supplement of paper PMC11732987, “Enantioselective OTUD7B fragment discovery through chemoproteomics screening and high-throughput optimisation” (Communications Chemistry, 2025).
The list shows a part of the results. The data scatter; read single values as rough.

Chains of the proteins cited; added tags and fusions are not shown. Lines headed by an entry give the natural chain unless they say otherwise; changes in a name come on top. Residues count along the entry.
UniProt Q9NRW7, 346-371: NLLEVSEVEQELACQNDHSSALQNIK
UniProt Q8NEZ3: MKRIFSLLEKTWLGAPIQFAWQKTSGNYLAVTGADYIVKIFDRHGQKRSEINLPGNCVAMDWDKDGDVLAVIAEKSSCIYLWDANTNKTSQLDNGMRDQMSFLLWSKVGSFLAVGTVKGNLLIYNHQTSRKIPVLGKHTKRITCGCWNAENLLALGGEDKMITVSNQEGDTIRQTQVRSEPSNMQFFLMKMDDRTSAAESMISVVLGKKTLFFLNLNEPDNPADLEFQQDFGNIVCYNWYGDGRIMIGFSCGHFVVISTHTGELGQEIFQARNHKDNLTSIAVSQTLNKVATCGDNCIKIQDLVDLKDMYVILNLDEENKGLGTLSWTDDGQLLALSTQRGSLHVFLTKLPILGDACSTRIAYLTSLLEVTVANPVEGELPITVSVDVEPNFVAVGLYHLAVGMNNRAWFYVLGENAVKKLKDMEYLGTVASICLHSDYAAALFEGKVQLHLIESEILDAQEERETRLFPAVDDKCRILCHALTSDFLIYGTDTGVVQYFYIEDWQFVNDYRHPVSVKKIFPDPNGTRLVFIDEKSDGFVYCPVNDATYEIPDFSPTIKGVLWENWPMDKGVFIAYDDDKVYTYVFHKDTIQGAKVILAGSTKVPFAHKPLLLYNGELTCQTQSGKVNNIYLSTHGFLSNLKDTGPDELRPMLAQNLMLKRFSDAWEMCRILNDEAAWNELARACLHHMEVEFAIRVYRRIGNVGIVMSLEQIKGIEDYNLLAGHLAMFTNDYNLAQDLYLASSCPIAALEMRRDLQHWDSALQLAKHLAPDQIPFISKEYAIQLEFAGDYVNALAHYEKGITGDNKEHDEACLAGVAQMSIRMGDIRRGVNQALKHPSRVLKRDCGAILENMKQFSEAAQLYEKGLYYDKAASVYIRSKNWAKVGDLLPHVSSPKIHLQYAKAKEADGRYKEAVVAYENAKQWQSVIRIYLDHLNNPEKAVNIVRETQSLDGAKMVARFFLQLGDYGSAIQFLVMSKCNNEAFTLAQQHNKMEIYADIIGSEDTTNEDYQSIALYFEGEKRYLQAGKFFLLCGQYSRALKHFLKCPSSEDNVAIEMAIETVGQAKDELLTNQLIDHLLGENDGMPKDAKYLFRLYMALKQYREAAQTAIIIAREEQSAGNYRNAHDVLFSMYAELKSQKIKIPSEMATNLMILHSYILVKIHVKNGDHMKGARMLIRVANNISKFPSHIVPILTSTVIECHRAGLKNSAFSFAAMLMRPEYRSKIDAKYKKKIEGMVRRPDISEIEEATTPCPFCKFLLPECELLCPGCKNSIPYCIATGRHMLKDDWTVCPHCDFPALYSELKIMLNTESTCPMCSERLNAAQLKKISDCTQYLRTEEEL
UniProt Q9H967: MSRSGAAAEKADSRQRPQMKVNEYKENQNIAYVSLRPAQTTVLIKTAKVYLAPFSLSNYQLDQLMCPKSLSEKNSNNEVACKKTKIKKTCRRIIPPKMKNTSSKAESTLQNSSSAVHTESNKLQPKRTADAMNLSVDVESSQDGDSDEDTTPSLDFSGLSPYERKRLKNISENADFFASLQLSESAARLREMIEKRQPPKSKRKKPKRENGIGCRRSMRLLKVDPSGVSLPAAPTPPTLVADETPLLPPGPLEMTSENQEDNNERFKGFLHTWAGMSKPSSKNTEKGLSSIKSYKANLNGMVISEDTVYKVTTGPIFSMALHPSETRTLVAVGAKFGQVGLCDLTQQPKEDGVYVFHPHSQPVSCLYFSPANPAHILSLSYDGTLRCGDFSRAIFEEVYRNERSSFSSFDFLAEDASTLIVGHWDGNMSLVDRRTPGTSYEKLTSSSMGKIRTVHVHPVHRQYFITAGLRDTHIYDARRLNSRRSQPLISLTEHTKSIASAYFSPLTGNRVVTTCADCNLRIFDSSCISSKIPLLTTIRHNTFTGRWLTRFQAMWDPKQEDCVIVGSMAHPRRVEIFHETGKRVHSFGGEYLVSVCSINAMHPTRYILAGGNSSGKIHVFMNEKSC
UniProt Q9ULM3, 332-364: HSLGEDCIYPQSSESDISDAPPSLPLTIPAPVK
UniProt Q96JG6: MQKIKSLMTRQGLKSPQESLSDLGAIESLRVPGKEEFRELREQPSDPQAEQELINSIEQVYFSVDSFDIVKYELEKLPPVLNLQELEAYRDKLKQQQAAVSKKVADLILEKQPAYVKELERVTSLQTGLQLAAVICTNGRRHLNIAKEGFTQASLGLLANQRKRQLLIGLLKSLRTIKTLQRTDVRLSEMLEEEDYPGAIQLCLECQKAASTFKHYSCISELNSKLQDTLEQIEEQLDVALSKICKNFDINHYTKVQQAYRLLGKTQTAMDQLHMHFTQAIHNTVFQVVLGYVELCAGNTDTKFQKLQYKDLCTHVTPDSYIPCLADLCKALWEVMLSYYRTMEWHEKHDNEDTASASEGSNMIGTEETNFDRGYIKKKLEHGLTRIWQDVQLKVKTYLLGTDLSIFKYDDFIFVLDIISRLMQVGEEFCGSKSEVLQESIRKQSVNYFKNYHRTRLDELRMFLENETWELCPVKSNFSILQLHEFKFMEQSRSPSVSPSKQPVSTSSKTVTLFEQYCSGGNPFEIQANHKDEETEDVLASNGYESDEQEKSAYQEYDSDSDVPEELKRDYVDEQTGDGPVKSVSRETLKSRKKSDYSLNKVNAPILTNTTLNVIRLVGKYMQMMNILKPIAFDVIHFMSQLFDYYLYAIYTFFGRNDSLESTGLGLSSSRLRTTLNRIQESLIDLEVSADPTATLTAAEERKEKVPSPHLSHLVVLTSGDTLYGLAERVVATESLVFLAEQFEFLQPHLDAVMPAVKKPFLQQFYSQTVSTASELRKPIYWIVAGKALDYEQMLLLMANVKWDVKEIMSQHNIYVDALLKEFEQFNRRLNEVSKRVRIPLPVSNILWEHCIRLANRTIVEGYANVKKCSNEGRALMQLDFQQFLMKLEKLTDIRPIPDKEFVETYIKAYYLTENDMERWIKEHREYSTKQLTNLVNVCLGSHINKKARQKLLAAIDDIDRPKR
UniProt O75083, 490-511: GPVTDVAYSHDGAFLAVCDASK
UniProt O43379: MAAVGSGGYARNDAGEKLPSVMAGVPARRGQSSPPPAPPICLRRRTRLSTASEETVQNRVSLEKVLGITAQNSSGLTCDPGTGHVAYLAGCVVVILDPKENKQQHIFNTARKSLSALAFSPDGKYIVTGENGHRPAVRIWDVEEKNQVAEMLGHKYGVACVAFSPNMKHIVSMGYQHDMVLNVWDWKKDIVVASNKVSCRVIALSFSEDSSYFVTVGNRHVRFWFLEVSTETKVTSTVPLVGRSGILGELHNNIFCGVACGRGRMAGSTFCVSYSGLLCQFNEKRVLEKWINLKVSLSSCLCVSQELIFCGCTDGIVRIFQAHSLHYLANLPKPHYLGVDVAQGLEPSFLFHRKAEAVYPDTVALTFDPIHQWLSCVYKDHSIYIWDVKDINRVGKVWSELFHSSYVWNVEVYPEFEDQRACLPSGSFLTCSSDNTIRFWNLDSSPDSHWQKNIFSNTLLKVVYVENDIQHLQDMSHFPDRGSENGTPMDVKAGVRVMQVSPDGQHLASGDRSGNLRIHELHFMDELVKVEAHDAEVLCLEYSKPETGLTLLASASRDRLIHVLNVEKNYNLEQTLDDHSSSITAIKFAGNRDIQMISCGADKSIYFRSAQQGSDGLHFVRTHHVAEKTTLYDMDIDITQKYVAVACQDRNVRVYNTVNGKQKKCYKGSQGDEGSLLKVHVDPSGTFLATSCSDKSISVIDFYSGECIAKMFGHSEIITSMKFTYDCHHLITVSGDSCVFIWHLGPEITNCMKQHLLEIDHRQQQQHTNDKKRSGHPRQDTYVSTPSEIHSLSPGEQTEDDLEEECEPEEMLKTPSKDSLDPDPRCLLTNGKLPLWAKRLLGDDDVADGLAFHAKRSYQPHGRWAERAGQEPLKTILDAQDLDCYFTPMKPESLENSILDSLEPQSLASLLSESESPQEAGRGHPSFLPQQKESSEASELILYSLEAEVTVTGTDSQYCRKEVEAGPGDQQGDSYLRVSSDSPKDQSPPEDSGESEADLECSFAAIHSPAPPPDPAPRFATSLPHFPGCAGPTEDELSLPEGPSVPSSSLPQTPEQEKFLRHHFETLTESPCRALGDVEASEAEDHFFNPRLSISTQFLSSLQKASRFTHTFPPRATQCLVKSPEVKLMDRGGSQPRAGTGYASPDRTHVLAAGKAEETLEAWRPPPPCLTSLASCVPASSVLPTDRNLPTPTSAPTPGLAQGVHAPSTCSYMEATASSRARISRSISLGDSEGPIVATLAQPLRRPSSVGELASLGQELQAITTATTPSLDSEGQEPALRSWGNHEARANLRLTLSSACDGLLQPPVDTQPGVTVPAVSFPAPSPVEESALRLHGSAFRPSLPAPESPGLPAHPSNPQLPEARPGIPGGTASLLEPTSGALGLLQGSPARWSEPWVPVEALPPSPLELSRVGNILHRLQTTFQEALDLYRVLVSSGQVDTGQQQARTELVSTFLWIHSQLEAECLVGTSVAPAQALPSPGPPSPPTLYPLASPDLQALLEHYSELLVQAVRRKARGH
UniProt O43542: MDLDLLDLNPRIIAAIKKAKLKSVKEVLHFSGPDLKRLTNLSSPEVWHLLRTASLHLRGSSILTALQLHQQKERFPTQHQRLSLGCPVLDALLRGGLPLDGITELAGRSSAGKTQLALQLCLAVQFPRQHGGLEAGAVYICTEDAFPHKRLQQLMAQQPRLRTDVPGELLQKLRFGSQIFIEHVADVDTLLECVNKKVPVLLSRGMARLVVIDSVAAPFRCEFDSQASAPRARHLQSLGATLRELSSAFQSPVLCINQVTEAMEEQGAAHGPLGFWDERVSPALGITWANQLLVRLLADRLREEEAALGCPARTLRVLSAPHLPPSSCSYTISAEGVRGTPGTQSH
UniProt Q7Z5K2, 951-970: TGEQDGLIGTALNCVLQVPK
UniProt P61981: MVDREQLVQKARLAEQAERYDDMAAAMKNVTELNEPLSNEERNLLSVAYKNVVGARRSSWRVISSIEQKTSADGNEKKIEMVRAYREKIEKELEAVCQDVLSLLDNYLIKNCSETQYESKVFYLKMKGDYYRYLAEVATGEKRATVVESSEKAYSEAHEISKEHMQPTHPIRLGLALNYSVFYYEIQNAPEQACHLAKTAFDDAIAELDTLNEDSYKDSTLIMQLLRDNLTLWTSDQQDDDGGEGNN
UniProt Q8N1B4: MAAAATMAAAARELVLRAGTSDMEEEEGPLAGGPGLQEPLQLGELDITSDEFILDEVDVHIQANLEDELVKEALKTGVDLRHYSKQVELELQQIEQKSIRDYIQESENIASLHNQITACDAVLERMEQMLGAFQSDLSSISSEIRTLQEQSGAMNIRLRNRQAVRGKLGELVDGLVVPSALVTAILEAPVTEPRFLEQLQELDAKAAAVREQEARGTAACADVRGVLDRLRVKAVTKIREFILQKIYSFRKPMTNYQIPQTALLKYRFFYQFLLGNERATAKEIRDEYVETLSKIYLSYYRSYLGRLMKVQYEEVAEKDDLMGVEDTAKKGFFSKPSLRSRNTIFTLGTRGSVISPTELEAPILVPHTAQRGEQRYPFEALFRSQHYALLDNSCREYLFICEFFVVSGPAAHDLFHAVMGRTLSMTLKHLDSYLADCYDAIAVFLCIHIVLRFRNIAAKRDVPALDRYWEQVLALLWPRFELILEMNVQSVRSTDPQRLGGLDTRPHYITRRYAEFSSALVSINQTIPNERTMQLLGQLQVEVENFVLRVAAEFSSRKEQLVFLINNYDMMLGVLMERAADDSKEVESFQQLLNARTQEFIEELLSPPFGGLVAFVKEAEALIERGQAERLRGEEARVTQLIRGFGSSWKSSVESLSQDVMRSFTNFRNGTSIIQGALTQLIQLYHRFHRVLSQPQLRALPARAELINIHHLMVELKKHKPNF
UniProt O75351, whole entry, looked up: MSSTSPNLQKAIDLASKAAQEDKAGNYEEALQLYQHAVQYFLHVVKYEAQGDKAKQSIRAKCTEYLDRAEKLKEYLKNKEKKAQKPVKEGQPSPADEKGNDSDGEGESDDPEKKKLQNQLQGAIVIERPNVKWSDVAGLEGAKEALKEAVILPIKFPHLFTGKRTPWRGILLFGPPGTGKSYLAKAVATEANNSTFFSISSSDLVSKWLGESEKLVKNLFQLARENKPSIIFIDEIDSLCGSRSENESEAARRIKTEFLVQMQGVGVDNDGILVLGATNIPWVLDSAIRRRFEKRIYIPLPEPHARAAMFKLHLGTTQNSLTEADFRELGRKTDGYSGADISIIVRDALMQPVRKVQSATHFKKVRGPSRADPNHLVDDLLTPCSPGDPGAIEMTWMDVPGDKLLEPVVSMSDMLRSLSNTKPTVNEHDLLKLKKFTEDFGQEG

The targets below were run with ClCC(=O)N[C@@H]1CCCc2ccccc12 (assay: log2 mean competition ratio of IA-DTB cysteine labelling (DMSO/compound) (log2 ratio); higher = stronger cysteine engagement by compound). Details: 50 µM; treatment time: 4 h; cell line lysate: HEK293T.
Experimental: (§1)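 IA-DTB competitive cysteine chemoproteomics in HEK293T RIPA lysate. Lysates were treated with compound 29 or 30 at 50 or 200 µM for 4 h, then IA-DTB (500 µM, 1 h), trypsin-digested, NeutrAvidin-enriched and analysed by diaPASEF. Competition ratio = intensity DMSO / intensity compound (n=4 treated, n=64 DMSO); binding: mean log2 CR ≥ 1 and p ≤ 0.05 plus QC filters. Target is the cysteine site.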
With VPS45 C359 (UniProt Q9NRW7) the “log2 mean competition ratio” value was -0.224.
For XPO5 C605 (UniProt Q9HAV4), the “log2 mean competition ratio” value was 0.136.
In the case of ZBTB11 C197 (UniProt O95625), the “log2 mean competition ratio” value is reported as 0.515.
WNK2 C2051 (UniProt Q9Y3S1) was tested, and the “log2 mean competition ratio” value was 0.114.
WDR19 C979 (UniProt Q8NEZ3) was tested, and the “log2 mean competition ratio” value was 0.101.
For WDR76 C81 (UniProt Q9H967), the “log2 mean competition ratio” value was -0.0313.
For WNK2 C1635 (UniProt Q9Y3S1), the “log2 mean competition ratio” value was -0.228.
In the case of YEATS2 C338 (UniProt Q9ULM3), the “log2 mean competition ratio” value is reported as 0.307.
WWC3 C158 was tested, and the “log2 mean competition ratio” value was -0.15.
For VPS50 C430 (UniProt Q96JG6), the “log2 mean competition ratio” value was -0.0963.
WDR1 C507 (UniProt O75083) was tested, and the “log2 mean competition ratio” value was 0.068.
In the case of WDR62 C707 (UniProt O43379), the “log2 mean competition ratio” value is reported as -0.0228.
In the case of WDR41 C166 (UniProt Q9HAD4), the “log2 mean competition ratio” value is reported as -0.166.
In the case of WDR75 C12 (UniProt Q8IWA0), the “log2 mean competition ratio” value is reported as 0.258.
In the case of WWOX C382 (UniProt Q9NZC7), the “log2 mean competition ratio” value is reported as 0.0824.
For XRCC3 C221 (UniProt O43542), the “log2 mean competition ratio” value was 0.0393.
XPR1 C188 (UniProt Q9UBH6) was tested, and the “log2 mean competition ratio” value was 0.409.
For WRN C1115 (UniProt Q14191), the “log2 mean competition ratio” value was 0.506.
In the case of WAPL C964 (UniProt Q7Z5K2), the “log2 mean competition ratio” value is reported as -0.236.
YWHAG C112 (UniProt P61981) was tested, and the “log2 mean competition ratio” value was -0.0238.
WAPL C1190 (UniProt Q7Z5K2) was tested, and the “log2 mean competition ratio” value was -0.144.
WDFY3 C36 (UniProt Q8IZQ1) was tested, and the “log2 mean competition ratio” value was 0.12.
With WDR37 C8 (UniProt Q9Y2I8) the “log2 mean competition ratio” value was 0.147.
With WIZ C1279 (UniProt O95785) the “log2 mean competition ratio” value was 0.198.
For YJU2 C83 (UniProt Q9BW85), the “log2 mean competition ratio” value was 0.048.
VPS35L C588 (UniProt Q7Z3J2) was tested, and the “log2 mean competition ratio” value was 0.105.
VPS52 C220 (UniProt Q8N1B4) was tested, and the “log2 mean competition ratio” value was -0.0603.
With VPS4B C240 (UniProt O75351) the “log2 mean competition ratio” value was 0.253.
In the case of VWA8 C162 (UniProt A3KMH1), the “log2 mean competition ratio” value is reported as 0.0287.
For WASHC4 C936 (UniProt Q2M389), the “log2 mean competition ratio” value was 0.452.
With ZBED4 C156 (UniProt O75132) the “log2 mean competition ratio” value was 0.378.
For VPS4B C62 (UniProt O75351), the “log2 mean competition ratio” value was -0.194.
With XPO5 C1052 (UniProt Q9HAV4) the “log2 mean competition ratio” value was 0.217.
With WNK3 C278 (UniProt Q9BYP7) the “log2 mean competition ratio” value was -0.133.
For WDR62 C826 (UniProt O43379), the “log2 mean competition ratio” value was 0.348.
With ZC3H7A C506 (UniProt Q8IWR0) the “log2 mean competition ratio” value was -0.156.
In the case of ZBTB33 C431 (UniProt Q86T24), the “log2 mean competition ratio” value is reported as -0.0668.

Same assay, conditions: 200 µM; treatment time: 4 h; cell line lysate: HEK293T
For VPS45 C359 (UniProt Q9NRW7), the “log2 mean competition ratio” value was -0.119.
For XPO5 C605 (UniProt Q9HAV4), the “log2 mean competition ratio” value was -0.111.
In the case of ZBTB11 C197 (UniProt O95625), the “log2 mean competition ratio” value is reported as -0.15.
With WNK2 C2051 (UniProt Q9Y3S1) the “log2 mean competition ratio” value was 0.0995.
With WDR19 C979 (UniProt Q8NEZ3) the “log2 mean competition ratio” value was -0.18.
In the case of WDR76 C81 (UniProt Q9H967), the “log2 mean competition ratio” value is reported as 0.0385.
For WNK2 C1635 (UniProt Q9Y3S1), the “log2 mean competition ratio” value was -0.177.
In the case of YEATS2 C338 (UniProt Q9ULM3), the “log2 mean competition ratio” value is reported as 0.282.
For WWC3 C158, the “log2 mean competition ratio” value was -0.00101.
VPS50 C430 (UniProt Q96JG6) was tested, and the “log2 mean competition ratio” value was 0.116.
WDR1 C507 (UniProt O75083) was tested, and the “log2 mean competition ratio” value was -0.00611.
For WDR62 C707 (UniProt O43379), the “log2 mean competition ratio” value was 0.0743.
For WDR41 C166 (UniProt Q9HAD4), the “log2 mean competition ratio” value was -0.000811.
With WDR75 C12 (UniProt Q8IWA0) the “log2 mean competition ratio” value was 0.0646.
In the case of WWOX C382 (UniProt Q9NZC7), the “log2 mean competition ratio” value is reported as -0.0213.
With XRCC3 C221 (UniProt O43542) the “log2 mean competition ratio” value was -0.0192.
XPR1 C188 (UniProt Q9UBH6) was tested, and the “log2 mean competition ratio” value was 0.53.
For WRN C1115 (UniProt Q14191), the “log2 mean competition ratio” value was -0.118.
In the case of WAPL C964 (UniProt Q7Z5K2), the “log2 mean competition ratio” value is reported as 0.0691.
With YWHAG C112 (UniProt P61981) the “log2 mean competition ratio” value was -0.207.
With WAPL C1190 (UniProt Q7Z5K2) the “log2 mean competition ratio” value was 0.0735.
For WDFY3 C36 (UniProt Q8IZQ1), the “log2 mean competition ratio” value was 0.0911.
With WDR37 C8 (UniProt Q9Y2I8) the “log2 mean competition ratio” value was -0.198.
With WIZ C1279 (UniProt O95785) the “log2 mean competition ratio” value was -0.433.
YJU2 C83 (UniProt Q9BW85) was tested, and the “log2 mean competition ratio” value was -0.268.
In the case of VPS35L C588 (UniProt Q7Z3J2), the “log2 mean competition ratio” value is reported as -0.336.
In the case of VPS52 C220 (UniProt Q8N1B4), the “log2 mean competition ratio” value is reported as 0.288.
For VPS4B C240 (UniProt O75351), the “log2 mean competition ratio” value was 0.225.
For VWA8 C162 (UniProt A3KMH1), the “log2 mean competition ratio” value was -0.0178.
In the case of WASHC4 C936 (UniProt Q2M389), the “log2 mean competition ratio” value is reported as -0.00583.
For ZBED4 C156 (UniProt O75132), the “log2 mean competition ratio” value was 0.0515.
With VPS4B C62 (UniProt O75351) the “log2 mean competition ratio” value was -0.0557.
XPO5 C1052 (UniProt Q9HAV4) was tested, and the “log2 mean competition ratio” value was -0.36.
WNK3 C278 (UniProt Q9BYP7) was tested, and the “log2 mean competition ratio” value was -0.144.
With WDR62 C826 (UniProt O43379) the “log2 mean competition ratio” value was 0.47.
In the case of ZC3H7A C506 (UniProt Q8IWR0), the “log2 mean competition ratio” value is reported as 0.0323.
In the case of ZBTB33 C431 (UniProt Q86T24), the “log2 mean competition ratio” value is reported as 0.152.

What follows are targets tested with ClCC(=O)N[C@H]1CCCc2ccccc12 in the same assay as above. Details: 50 µM; treatment time: 4 h; cell line lysate: HEK293T.
Experimental: as §1
For VPS45 C359 (UniProt Q9NRW7), the “log2 mean competition ratio” value was 0.289.
XPO5 C605 (UniProt Q9HAV4) was tested, and the “log2 mean competition ratio” value was 0.219.
With ZBTB11 C197 (UniProt O95625) the “log2 mean competition ratio” value was 0.367.
For WNK2 C2051 (UniProt Q9Y3S1), the “log2 mean competition ratio” value was 0.0575.
WDR19 C979 (UniProt Q8NEZ3) was tested, and the “log2 mean competition ratio” value was -0.225.
For WDR76 C81 (UniProt Q9H967), the “log2 mean competition ratio” value was 0.0181.
WNK2 C1635 (UniProt Q9Y3S1) was tested, and the “log2 mean competition ratio” value was -0.0509.
With YEATS2 C338 (UniProt Q9ULM3) the “log2 mean competition ratio” value was 0.521.
In the case of WWC3 C158, the “log2 mean competition ratio” value is reported as -0.068.
With VPS50 C430 (UniProt Q96JG6) the “log2 mean competition ratio” value was -0.55.
With WDR1 C507 (UniProt O75083) the “log2 mean competition ratio” value was -0.424.
WDR62 C707 (UniProt O43379) was tested, and the “log2 mean competition ratio” value was -0.354.
For WDR41 C166 (UniProt Q9HAD4), the “log2 mean competition ratio” value was 0.165.
WDR75 C12 (UniProt Q8IWA0) was tested, and the “log2 mean competition ratio” value was 0.0321.
With WWOX C382 (UniProt Q9NZC7) the “log2 mean competition ratio” value was -0.0975.
For XRCC3 C221 (UniProt O43542), the “log2 mean competition ratio” value was -0.023.
In the case of XPR1 C188 (UniProt Q9UBH6), the “log2 mean competition ratio” value is reported as 0.532.
For WRN C1115 (UniProt Q14191), the “log2 mean competition ratio” value was 0.359.
With WAPL C964 (UniProt Q7Z5K2) the “log2 mean competition ratio” value was -0.37.
YWHAG C112 (UniProt P61981) was tested, and the “log2 mean competition ratio” value was -0.276.
WAPL C1190 (UniProt Q7Z5K2) was tested, and the “log2 mean competition ratio” value was -0.243.
For WDFY3 C36 (UniProt Q8IZQ1), the “log2 mean competition ratio” value was -0.236.
In the case of WDR37 C8 (UniProt Q9Y2I8), the “log2 mean competition ratio” value is reported as 0.206.
With WIZ C1279 (UniProt O95785) the “log2 mean competition ratio” value was 0.435.
For YJU2 C83 (UniProt Q9BW85), the “log2 mean competition ratio” value was -0.327.
With VPS35L C588 (UniProt Q7Z3J2) the “log2 mean competition ratio” value was -0.0998.
For VPS52 C220 (UniProt Q8N1B4), the “log2 mean competition ratio” value was -0.0362.
With VPS4B C240 (UniProt O75351) the “log2 mean competition ratio” value was -0.00497.
In the case of VWA8 C162 (UniProt A3KMH1), the “log2 mean competition ratio” value is reported as -0.0809.
With WASHC4 C936 (UniProt Q2M389) the “log2 mean competition ratio” value was 0.402.
In the case of ZBED4 C156 (UniProt O75132), the “log2 mean competition ratio” value is reported as 0.279.
With VPS4B C62 (UniProt O75351) the “log2 mean competition ratio” value was -0.207.
For XPO5 C1052 (UniProt Q9HAV4), the “log2 mean competition ratio” value was 0.0269.
WNK3 C278 (UniProt Q9BYP7) was tested, and the “log2 mean competition ratio” value was -0.0512.
With WDR62 C826 (UniProt O43379) the “log2 mean competition ratio” value was 0.477.
ZC3H7A C506 (UniProt Q8IWR0) was tested, and the “log2 mean competition ratio” value was 0.0151.
ZBTB33 C431 (UniProt Q86T24) was tested, and the “log2 mean competition ratio” value was -0.0612.
